Test [1] has as its target T1, mouse DNase X on bone marrow-derived macrophages (BMDMs) of wild-type mice (mouse (endogenous in BMDMs)) (UniProt Q9D7J6).
T1 sequence: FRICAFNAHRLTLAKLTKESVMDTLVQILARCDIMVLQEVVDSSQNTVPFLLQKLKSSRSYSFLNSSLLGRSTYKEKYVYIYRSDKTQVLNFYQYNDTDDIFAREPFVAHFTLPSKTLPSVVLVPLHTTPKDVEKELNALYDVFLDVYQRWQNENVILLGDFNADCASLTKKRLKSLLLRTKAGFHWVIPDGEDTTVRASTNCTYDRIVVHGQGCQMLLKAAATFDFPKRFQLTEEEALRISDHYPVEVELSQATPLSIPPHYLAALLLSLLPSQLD
In words: binding of protein-coated latex beads to cells (fluorescence microscopy); rEtpE-C-coated 0.5 um fluorescent beads incubated with BMDMs from wild-type or DNase X-/- mice for 30 min at 4°C, washed, fixed without trypsin treatment; only the binder purified.

The target in test [2] is rECH0825, recombinant E. chaffeensis type IV secretion effector protein ECH0825 (E. chaffeensis). In words: pull-down; His-tagged rEtpE-C bound to and renatured on Ni-affinity matrix; THP-1 cell lysate in NP-40 lysis buffer, 8 h at 4°C; eluted with 250 mM imidazole; Western blot with anti-DNase X; only the target purified.
The target of test [3] is rEtpE-C, recombinant C-terminal fragment of EtpE (ECH1038) with a C-terminal histidine tag (E. chaffeensis (Arkansas strain)). Described as above.
For test [4], the target named is native EtpE (ECH1038) of E. chaffeensis (E. chaffeensis (Arkansas strain)). The test is described as follows: co-IP; THP-1 cells incubated with E. chaffeensis for 30 min, lysed in NP-40 lysis buffer; immunoprecipitated with anti-EtpE-C-bound protein A agarose or control mouse IgG; Western blot with anti-DNase X.
Test [5] concerns the target rECH0825, recombinant E. chaffeensis type IV secretion effector protein ECH0825 (E. chaffeensis). In words: far-Western; 5 ug rEtpE-C and rECH0825 separated by SDS-PAGE, transferred to nitrocellulose and renatured with serial guanidinium-HCl treatment, incubated with THP-1 cell lysate in NP-40 lysis buffer; detected with anti-DNase X; only the target purified.
The target in test [6] is rEtpE-C, recombinant C-terminal fragment of EtpE (ECH1038) with a C-terminal histidine tag (E. chaffeensis (Arkansas strain)). The test is described as above.

These are yes or no findings as the source states them, for the method shown. For part of these data: A result given as binding can be weak or reduced; the word gives no strength. For part of these data: In cells and extracts the contact can be indirect.

Binding data for 2 molecules are collected here from paper PMC3789761.

With “rEtpE-C, recombinant C-terminal fragment of EtpE (ECH1038) with a C-terminal histidine tag (E. chaffeensis (Arkansas strain)) (domain or fragment)”, the binding entry in test [1] is reported as “binds”.

B1: native human DNase X from THP-1 cell lysate (protein, UniProt P49184 19-302)
chain: FRICAFNAQRLTLAKVAREQVMDTLVRILARCDIMVLQEVVDSSGSAIPLLLRELNRFDGSGPYSTLSSPQLGRSTYMETYVYFYRSHKTQVLSSYVYNDEDDVFAREPFVAQFSLPSNVLPSLVLVPLHTTPKAVEKELNALYDVFLEVSQHWQSKDVILLGDFNADCASLTKKRLDKLELRTEPGFHWVIADGEDTTVRASTHCTYDRVVLHGERCRSLLHTAAAFDFPTSFQLTEEEALNISDHYPVEVELKLSQAHSVQPLSLTVLLLLSLLSPQLCPAA
Turning to B1, the binding entry is on record as “no binding” in test [2]; “binds” in test [3]; “binds” in test [4]; “no binding” in test [5]; “binds” in test [6].
